Assay results from paper PMC3261171.
Results are given in words; binding and its absence hold for the method and conditions named. In cells and extracts the contact can be indirect. Some entries that bind do so weakly or less than the wild type.

Chains of the proteins cited; added tags and fusions are not shown.
UniProt Q96Q05: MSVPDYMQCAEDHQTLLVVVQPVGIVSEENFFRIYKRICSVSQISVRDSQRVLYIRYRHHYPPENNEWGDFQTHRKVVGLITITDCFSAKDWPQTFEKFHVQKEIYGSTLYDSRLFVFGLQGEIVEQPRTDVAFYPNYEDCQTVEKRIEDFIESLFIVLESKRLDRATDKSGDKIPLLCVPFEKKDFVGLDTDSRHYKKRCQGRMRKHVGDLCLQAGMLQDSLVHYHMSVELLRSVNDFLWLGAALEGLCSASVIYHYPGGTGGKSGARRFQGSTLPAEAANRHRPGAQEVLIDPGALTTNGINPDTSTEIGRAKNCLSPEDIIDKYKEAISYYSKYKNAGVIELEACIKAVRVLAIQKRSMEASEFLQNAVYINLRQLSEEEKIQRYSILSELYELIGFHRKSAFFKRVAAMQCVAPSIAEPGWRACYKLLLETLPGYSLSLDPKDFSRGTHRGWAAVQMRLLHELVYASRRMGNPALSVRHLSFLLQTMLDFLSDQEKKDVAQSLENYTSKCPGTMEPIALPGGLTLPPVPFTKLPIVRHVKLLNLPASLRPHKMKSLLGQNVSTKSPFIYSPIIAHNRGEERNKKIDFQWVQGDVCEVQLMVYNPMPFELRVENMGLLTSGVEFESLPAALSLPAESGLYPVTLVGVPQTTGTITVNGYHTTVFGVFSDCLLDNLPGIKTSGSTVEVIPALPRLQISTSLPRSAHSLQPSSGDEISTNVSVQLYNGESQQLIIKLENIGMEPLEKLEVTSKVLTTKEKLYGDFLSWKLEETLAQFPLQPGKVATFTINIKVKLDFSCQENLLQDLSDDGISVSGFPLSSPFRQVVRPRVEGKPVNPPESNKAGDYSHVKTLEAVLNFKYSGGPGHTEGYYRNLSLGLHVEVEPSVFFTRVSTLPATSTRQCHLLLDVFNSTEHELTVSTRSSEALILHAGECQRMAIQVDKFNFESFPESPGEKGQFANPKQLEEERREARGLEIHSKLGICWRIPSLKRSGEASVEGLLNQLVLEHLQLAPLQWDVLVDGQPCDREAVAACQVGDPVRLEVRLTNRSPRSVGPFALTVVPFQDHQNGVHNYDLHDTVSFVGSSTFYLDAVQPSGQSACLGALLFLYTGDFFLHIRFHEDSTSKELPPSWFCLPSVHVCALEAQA

Columns and labels:
[1] = molecular target: endogenous TRAPPC9 (human cells) (human (endogenous in HEK293 and Caco-2)) (UniProt Q96Q05); assay: co-IP; similar co-IP with lysates from Caco-2 and CHO cells; data not shown
[2] = molecular target: endogenous TRAPPC9 (human cells) (human (endogenous in HEK293 and Caco-2)) (UniProt Q96Q05); assay: co-IP; native immunoprecipitation of endogenous proteins from lysate of about 2x10^7 HEK293 cells with antibody against TRAPPC9 (anti-LAMP2 as negative control); immunoblotting

endogenous p150^Glued (human cells) (from UniProt Q14203-1 1-1278)
binding [1]: binds | binding [2]: binds

B1: Golgin-97 (protein, UniProt Q92805 1-767)
chain: MFAKLKKKIAEETAVAQRPGGATRIPRSVSKESVASMGADSGDDFASDGSSSREDLSSQLLRRNEQIRKLEARLSDYAEQVRNLQKIKEKLEIALEKHQDSSMRKFQEQNETFQANRAKMAEGLALALARKDQEWSEKMDQLEKEKNILTAQLQEMKNQSMNLFQRRDEMDELEGFQQQELSKIKHMLLKKEESLGKMEQELEARTRELSRTQEELMNSNQMSSDLSQKLEELQRHYSTLEEQRDHVIASKTGAESKITALEQKEQELQALIQQLSIDLQKVTAETQEKEDVITHLQEKVASLEKRLEQNLSGEEHLQELLKEKTLAEQNLEDTRQQLLAARSSQAKAINTLETRVRELEQTLQASEEQLQQSKGIVAAQETQIQELAAANQESSHVQQQALALEQQFLERTQALEAQIVALERTRAADQTTAEQGMRQLEQENAALKECRNEYERSLQNHQFELKKLKEEWSQREIVSVAMAQALEEVRKQREEFQQQAANLTAIIDEKEQNLREKTEVLLQKEQEILQLERGHNSALLQIHQLQAELEALRTLKAEEAAVVAEQEDLLRLRGPLQAEALSVNESHVTSRAMQDPVFQLPTAGRTPNGEVGAMDLTQLQKEKQDLEQQLLEKNKTIKQMQQRMLELRKTLQKELKIRPDNELFEVREKPGPEMANMAPSVTNNTDLTDAREINFEYLKHVVLKFMSCRESEAFHLIKAVSVLLNFSQEEENMLKETLEYKMSWFGSKPAPKGSIRPSISNPRIPWS
binding [2]: no binding
